# Library screen at single concentrations

Protein sequences, listed by entry. Tags and fused reporters are not part of them. Residues count along the entry.
UniProt Q8IDJ8, 1-583: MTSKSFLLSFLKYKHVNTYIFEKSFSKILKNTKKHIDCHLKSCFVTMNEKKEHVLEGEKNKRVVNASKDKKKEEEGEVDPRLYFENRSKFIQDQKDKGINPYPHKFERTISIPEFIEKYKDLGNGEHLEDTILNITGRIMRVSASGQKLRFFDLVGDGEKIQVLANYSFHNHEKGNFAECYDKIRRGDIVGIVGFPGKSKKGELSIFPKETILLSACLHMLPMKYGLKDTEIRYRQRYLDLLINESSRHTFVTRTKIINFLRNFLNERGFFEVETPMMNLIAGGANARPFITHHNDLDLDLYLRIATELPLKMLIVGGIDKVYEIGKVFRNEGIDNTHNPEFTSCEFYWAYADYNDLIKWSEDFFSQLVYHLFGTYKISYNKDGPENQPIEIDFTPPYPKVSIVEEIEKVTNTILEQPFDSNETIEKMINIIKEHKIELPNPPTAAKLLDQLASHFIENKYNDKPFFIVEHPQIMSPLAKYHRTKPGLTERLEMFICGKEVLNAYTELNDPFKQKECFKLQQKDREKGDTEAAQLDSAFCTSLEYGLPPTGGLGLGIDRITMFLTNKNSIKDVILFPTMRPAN
UniProt P9WFT3, whole entry: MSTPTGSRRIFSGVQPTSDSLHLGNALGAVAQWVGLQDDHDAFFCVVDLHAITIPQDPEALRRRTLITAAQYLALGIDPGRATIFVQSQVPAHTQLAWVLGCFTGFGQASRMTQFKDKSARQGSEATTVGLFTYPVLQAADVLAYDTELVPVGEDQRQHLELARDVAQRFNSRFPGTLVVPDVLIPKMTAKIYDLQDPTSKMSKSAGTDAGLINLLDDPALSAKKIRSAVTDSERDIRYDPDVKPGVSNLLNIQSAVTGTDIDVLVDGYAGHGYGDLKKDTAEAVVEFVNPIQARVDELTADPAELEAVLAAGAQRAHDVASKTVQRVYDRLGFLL
UniProt P9WPC5, whole entry: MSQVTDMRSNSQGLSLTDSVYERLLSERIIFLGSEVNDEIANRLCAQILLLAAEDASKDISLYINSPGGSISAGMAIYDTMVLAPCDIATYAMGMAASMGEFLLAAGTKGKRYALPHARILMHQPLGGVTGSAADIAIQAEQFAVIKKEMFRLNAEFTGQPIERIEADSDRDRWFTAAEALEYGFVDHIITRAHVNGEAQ
UniProt P9WPC3, whole entry partner: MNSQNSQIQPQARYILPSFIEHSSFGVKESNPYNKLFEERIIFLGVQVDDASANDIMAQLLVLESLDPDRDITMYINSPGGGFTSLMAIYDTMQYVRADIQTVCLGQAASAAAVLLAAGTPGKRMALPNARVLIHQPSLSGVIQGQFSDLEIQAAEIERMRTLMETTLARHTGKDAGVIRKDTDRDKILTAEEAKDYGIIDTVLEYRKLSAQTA
UniProt Q4DA54, 1-478: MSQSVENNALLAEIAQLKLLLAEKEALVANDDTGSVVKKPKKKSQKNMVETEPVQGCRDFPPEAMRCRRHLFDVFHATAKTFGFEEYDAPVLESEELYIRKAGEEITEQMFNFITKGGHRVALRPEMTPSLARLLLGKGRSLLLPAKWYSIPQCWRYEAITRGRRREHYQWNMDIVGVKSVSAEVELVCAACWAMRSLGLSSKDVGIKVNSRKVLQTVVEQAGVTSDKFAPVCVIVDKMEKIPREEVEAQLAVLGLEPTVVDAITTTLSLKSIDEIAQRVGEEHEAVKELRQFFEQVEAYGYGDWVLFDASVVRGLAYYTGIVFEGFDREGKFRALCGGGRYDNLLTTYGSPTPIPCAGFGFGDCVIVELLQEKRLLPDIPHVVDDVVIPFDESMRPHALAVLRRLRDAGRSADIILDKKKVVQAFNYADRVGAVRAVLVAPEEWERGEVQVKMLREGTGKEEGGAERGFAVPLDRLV

PfKRS1: 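Lysine-tRNA ligase, Plasmodium falciparum 3D7 (UniProt Q8IDJ8). Enzyme assay of the cytosolic lysyl-tRNA synthetase in 384-well plates, read by luminescence. Concentration: 30 µM. Higher reads as stronger inhibition, judged from the few compounds that gave an IC50. Size under these conditions: about 69,000 compounds, about 49 of them at 50% or above in at least one test.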
MtTrpRS: 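Tryptophan-tRNA ligase, Mycobacterium tuberculosis (UniProt P9WFT3). Enzyme assay of tryptophanyl-tRNA synthetase; the read-out is not stated. Tested at 10 µM. Direction is not recorded; retested compounds ran higher, which suggests that high means inhibition. About 65,000 compounds were tested under these conditions; 0.098% (about 64) showed 50% or more at least once.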
ClpP1P2: 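Protease assay of ClpP1P2, read by the AMC dye that it sets free. Target: ClpP1P2, Mycobacterium tuberculosis (UniProt P9WPC5 and UniProt P9WPC3). Compounds at 50 µM. Higher reads as stronger inhibition, judged from the few compounds that gave an IC50. Most other retested compounds had strongly negative values. Of about 69,000 compounds tested this way, about 10 (0.015%) reached 50% or more in at least one test.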
TcHisRS: 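Histidine-tRNA ligase, Trypanosoma cruzi CL Brener (UniProt Q4DA54). Enzyme assay of histidyl-tRNA synthetase; the read-out is not stated. Concentration: 30 µM. The record gives no direction; compounds that gave an IC50 in retests scored well above the rest, so higher reads as stronger inhibition. Of about 69,000 compounds tested this way, about 31 (0.045%) reached 50% or more in at least one test.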

Each number is a percent effect as filed. The record does not define 0% and 100%; most values in the screen are far below 50% and negative numbers occur (in some assays of this library far below -100). This is an unselected part of the compounds tested. A dash means the value is not listed here; it may have been measured.

SMILES	PfKRS1	MtTrpRS	ClpP1P2	TcHisRS
O=C(CCc1c(F)cccc1F)N1CCCCC1Cn1cccn1 (configuration not stated)	0.718%	-1.63%	-39.61%	1.458%
Cc1cc(NCCNS(C)(=O)=O)nc2cc3c(cc12)CCC3	3.154%	-4.025%	-0.9449%	8.287%
O=C1CN(CCCNS(=O)(=O)c2cccc(C(=O)NC3CC3)c2)CCN1	5.057%	-0.1235%	-8.404%	4.762%
Cc1noc(C)c1CN1CCc2c(CNc3nccs3)n[nH]c2C1	4.201%	5.394%	12.68%	9.756%
O=C(c1ccon1)N1CCc2ncnc(NCc3ccccn3)c2CC1	-1.455%	-1.698%	-8.197%	6.494%
CCn1nc2c(cc1=O)CN(Cc1nc(-c3ccccn3)no1)CC2	15.05%	7.944%	-9.2%	5.344%
Cc1cc(C(=O)N2CCCCC2)ccc1NS(C)(=O)=O	-3.248%	0.3623%	-4.81%	1.508%
CC(C)(CN1CCC(Cc2cccc(C(=O)O)c2)C1)N1CCOCC1 (configuration not stated)	2.596%	6.467%	-7.508%	4.721%
CCC(=O)N1CCC(c2nc(N3CCOCC3)ncc2S(C)(=O)=O)CC1	-1.182%	-4.777%	-13.77%	0.8571%
COc1ccc(NC(=O)N(C)Cc2ccco2)cn1	2.342%	-4.352%	9.442%	1.63%
CN(C)C[C@H]1CC[C@@H](Cc2ccc3c(cnn3C)c2)O1	5.202%	2.651%	-6.791%	2.463%
CN(C)C(=O)N1C[C@@H]2CC[C@H](C1)N(Cc1nnc(-c3ccco3)o1)C2	-2.837%	1.877%	-5.117%	4.95%
NS(=O)(=O)CCNC(=O)CCc1cc(Br)cs1	2.705%	-4.107%	-10.53%	3.158%
CCOC(C)c1noc(CN2CCN(c3nnc(C)s3)CC2)n1 (configuration not stated)	-3.059%	-5.091%	-0.544%	1.935%
Cn1ccnc1C(NCc1ccccc1)c1ccc(F)cc1 (configuration not stated)	2.701%	9.095%	-12.9%	10.79%
CN(C)S(=O)(=O)c1ccc2c(c1)N(Cc1ccccn1)CCC2	7.846%	-0.9497%	3.099%	11.67%
CN1CCCN(C(=O)c2nc3c(o2)CN(S(C)(=O)=O)C3)CC1	2.824%	-	3.289%	0%
CS(=O)(=O)N[C@@H]1COC[C@@H]2CN(Cc3ccco3)C[C@@H]21	-3.326%	-0.7979%	-16.05%	0%
CCN1CC(COC(=O)c2cc(Br)ccc2F)CC1=O (configuration not stated)	1.228%	-6.708%	-4.818%	2.762%
CNC(=O)CN(C)C(=O)c1cc(Cl)c(Cl)n1C	-4.084%	4.025%	2.087%	1.657%
Cc1nn(C)cc1NC(=O)CC1CCN(C(=O)Cc2ccccc2)CC1	0.3509%	7.104%	11.22%	-2.632%
Cc1cc(C(=O)NCCn2nc3ccccn3c2=O)[nH]n1	7.408%	-2.598%	25.93%	0.7634%
COc1ncccc1CNC(=O)c1cnccn1	3.527%	-2.941%	-23.67%	4.399%
CC(C)(O)CCc1cccc(C(=O)N2CCC[C@H]2C(N)=O)c1	0.657%	5.806%	0.4099%	12.12%
N#Cc1ccc(CN2CCN(Cc3ccncc3Cl)CC2=O)cc1	3.862%	-2.167%	-4.802%	9.392%
Cc1ccc(CN2CC[C@H]3[C@H]2CCN3S(C)(=O)=O)s1	1.794%	-4.392%	3.605%	4.598%
CCN(C(=O)CN1CCCC1Cc1ccccc1)c1ccccc1 (configuration not stated)	-1.53%	1.906%	-14.51%	15.52%
CCCN1CCC(c2cc(CCOc3ccc(C(F)(F)F)cc3)[nH]n2)C1 (configuration not stated)	1.223%	-5.908%	-25.82%	16.29%
CCN(CC)C(=O)c1nnsc1-c1ccc(C)cc1	9.057%	-2.67%	10.19%	8.808%
CN(C)C(=O)[C@H]1C[C@@H]2CCN(Cc3ccncc3)C[C@H]2O1	-2.111%	-1.395%	1.585%	0.8264%
Cc1ccc(C(O)CN2CCN(Cc3nccn3C)CC2)cc1C (configuration not stated)	-0.298%	-3.009%	-37.34%	4.373%
Cc1ccc2c(n1)N(Cc1cccnc1)CCN(C(=O)C1CC=CC1)C2	-2.642%	-3.103%	-25.79%	5.714%
CCOc1ccc(CCC(=O)N2CC[C@H]3C(=O)NCCO[C@H]3C2)cc1	-0.3314%	-1.647%	3.762%	3.448%
c1cnc(NCC2Cn3nnc(-c4ccoc4)c3CO2)nc1 (configuration not stated)	1.788%	-1.44%	2.23%	8.163%
Cc1n[nH]c(C)c1C1COCCN1C(=O)Cc1cccc(F)c1 (configuration not stated)	1.403%	3.065%	-15.89%	2.479%
COc1cccc2c1ccn2CCC(=O)NCCCC(=O)O	10.23%	2.211%	4.793%	4.918%
Cc1cnccc1Cn1ccnc1C1CCOC1 (configuration not stated)	-1.433%	-2.821%	4.93%	2.128%
Cc1nccc(CNC(=O)NCCOc2ccc(F)c(F)c2)n1	1.11%	-0.387%	-12.62%	0%
Cc1nn2cnnc2c(C)c1CCC(=O)Nc1nc2c(s1)CCC2	5.923%	2.771%	4.897%	13.4%
COc1ccc(NCc2ccccc2N2CCN(C(C)=O)CC2)cn1	6.514%	3.725%	-6.632%	8.421%
Cc1ncc(CN2C[C@H]3C[C@H](OCc4ccccc4)C[C@H]3C2)cn1	0.0384%	-4.232%	-0.3832%	6.716%
CN1CCN(C(=O)C2CCCc3[nH]ncc32)CC1 (configuration not stated)	0.8111%	8.403%	1.857%	5.291%
Cc1nc(C)n(CC2CN(CCCOc3ccccc3)CCO2)n1 (configuration not stated)	0.675%	1.372%	-17.95%	1.433%
Cc1ccccc1C(=O)N1Cc2c(Cn3ccnc3)nn(C)c2C1	-0.8226%	-4.17%	-1.94%	4.082%
Cc1ccc(OCC(=O)N2CCN[C@H]3CS(=O)(=O)C[C@H]32)cn1	6.752%	3.958%	7.89%	-2.326%
O=C(COc1ccc2cccnc2c1)N1CCN[C@H]2CS(=O)(=O)C[C@H]21	-1.724%	16.09%	18.26%	-4.651%
CN(C)C(=O)[C@H]1C[C@@H]2CN(C(=O)NCC3CCCCC3)C[C@H]1O2	5.985%	-0.7551%	6.293%	10.13%

For reference, 3 entries once more:

* Cc1cc(NCCNS(C)(=O)=O)nc2cc3c(cc12)CCC3 : PfKRS1: 3.154%; MtTrpRS: -4.025%; ClpP1P2: -0.9449%; TcHisRS: 8.287%
* NS(=O)(=O)CCNC(=O)CCc1cc(Br)cs1 : PfKRS1: 2.705%; MtTrpRS: -4.107%; ClpP1P2: -10.53%; TcHisRS: 3.158%
* Cc1nn2cnnc2c(C)c1CCC(=O)Nc1nc2c(s1)CCC2 : PfKRS1: 5.923%; MtTrpRS: 2.771%; ClpP1P2: 4.897%; TcHisRS: 13.4%

Data taken from ChEMBL document CHEMBL3988442, “University of Dundee, Small-Polar-MMV Screening Library” (2021).